In PubChem BioAssay AID2685 (National Center for Advancing Translational Sciences (NCATS), 2010):
About 2,100 (0.66%) of roughly 320,000 compounds were called active. The inconclusive results got no clear call from the source; some entries with a clear call stand among them for comparison. Calls follow the shape of the dose curve; as a rule, active = well fitted inhibition curve with a large enough effect in the signal ratio, with a control signal flat (not every such curve was filed as active); inconclusive = small, poorly fitted or top-dose-only effect, or effect the other way, or a change in a side signal; inactive = flat fitted curve, though single readings scatter; the % refers to the signal ratio. Potencies of inconclusive entries are doubtful fits and often do not repeat.
% is scaled to controls: 0 for no effect and ±100 for the full control effect; potency is read from the fitted curve at half-maximal effect.

Experiment: qHTS Assay for Lipid Storage Modulators in Drosophila S3 Cells
Details: BODIPY lipid droplet fluorescence, 18-24 h, cells fed with added oleic acid; lipid storage change, negative = inhibition: at 46.1 µM (top of the series) unless noted
Summary of the method: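 Laser-scanning cytometry quantifies lipid droplet accumulation (500–530 nm total intensity; droplet/cell object ratio) in oleic acid-fed (400 uM added) Drosophila S3 cells treated with a concentration series. 20 uM Triacsin C defined 100% inhibition.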
With `Cc1ccc(NC(=O)C2CCCN(S(=O)(=O)c3ccc4[nH]c(=O)ccc4c3)C2)nc1` (configuration not stated) the lipid storage change, negative = inhibition was inconclusive: 173%.
In the case of `Brc1cnc(N2CCCC2)nc1N1CCOCC1`, the Potency is reported as inconclusive: 4.11 µM [activator, partial curve].
For `COC(=O)c1ccc(NC(=O)CCOc2ccccc2)cc1`, the lipid storage change, negative = inhibition was inconclusive: 24.9%.
In the case of `COc1ccc(C(O)P(=O)(OC(C)C)OC(C)C)c(OC)c1` (configuration not stated), the lipid storage change, negative = inhibition is reported as inconclusive: -19.6%.
With `COc1cccc(-c2noc(Cn3nc(C)c([N+](=O)[O-])c3C)n2)c1` the Potency was inconclusive: 0.0046 µM [activator, full curve, poor fit].
In the case of `Cc1ccc(N=Nc2c(N)[nH]n3c(=O)cc(-c4ccccc4)nc23)cc1`, the lipid storage change, negative = inhibition is reported as inconclusive: -13.8%.
With `Cc1cc(N2CCN(c3ccccc3)CC2)n2c(n1)nc1ccccc12` the lipid storage change, negative = inhibition was inconclusive: 0.366%.
For `C=CCSc1n[nH]c(=O)n1-c1cccc(C(F)(F)F)c1`, the lipid storage change, negative = inhibition was inconclusive: -5.8%.
With `O=c1ccc(-c2ccc(S(=O)(=O)N3CCN(c4cccc(Cl)c4)CC3)o2)n[nH]1` the “outcome” value was “inactive [at 46.1 µM]”.
For `CC(C)CC(=O)N=C1SC2CS(=O)(=O)CC2N1Cc1ccccc1` (configuration not stated), the Potency was inconclusive: 7.31 µM [activator, partial curve].
In the case of `CCOc1ccc(N(Cc2ccc(C(=O)O)cc2)S(=O)(=O)c2ccc(C)cc2)cc1`, the Potency is reported as inconclusive: 0.731 µM [activator, full curve].
For `COc1ccc(OC)c(-n2c(SCC(=O)Nc3cc(C)on3)nnc2-c2c[nH]c3ccccc23)c1`, the lipid storage change, negative = inhibition was inconclusive: 11.1%.
With `Cc1sc2ncnc(N3CCC(C(=O)Nc4nc5ccc(Cl)cc5s4)CC3)c2c1C` the lipid storage change, negative = inhibition was inconclusive: 36.5%.
For `CCn1cc(C(=O)NCC(=O)NC(C)(C)CO)c(=O)c2cc3c(cc21)OCO3`, the Potency was inconclusive: 4.11 µM [falling, single point].
With `COc1ccc(C(C)=O)cc1COC(=O)c1cccnc1SC` the lipid storage change, negative = inhibition was inconclusive: 7.47%.
In the case of `C=CCNC(=O)/C(C#N)=C/c1ccccc1Cl`, the lipid storage change, negative = inhibition is reported as inconclusive: -28%.
For `O=C(Nc1cccc(-n2cnnn2)c1)c1ccccc1Br`, the Potency was inconclusive: 20.6 µM [falling, single point].
With `CCCOc1ccc(-c2c(=O)n(O)c3ccccc3[n+]2[O-])cc1` the Potency was inconclusive: 29.1 µM [falling, single point].
For `Cn1cnnc1SCC(=O)N1c2ccccc2-c2c(ssc2=S)C1(C)C`, the “lipid storage change, negative = inhibition” value was inactive: 10.2%.
For `CCOc1ccc(NC(=O)C/C(C)=N/NC(=O)Cc2cccs2)cc1`, the Potency was inconclusive: 0.116 µM [activator, single point].
With `COc1cc(S(=O)(=O)N2CCCN(C)CC2)ccc1NC(C)=O` the lipid storage change, negative = inhibition was inconclusive: -4.69%.
For `O=C(COc1cccc(Cl)c1)Nc1ccccc1N1CCCCC1`, the Potency was inconclusive: 0.206 µM [falling, full curve].
In the case of `O=C(NCc1ccc(Cl)cc1)C1CCC(CNc2c(N3CCOCC3)c(=O)c2=O)CC1` (configuration not stated), the lipid storage change, negative = inhibition is reported as inconclusive: -5.48%.
For `CN(C)C(=O)c1ccc(NC(=O)c2cc(-c3ccco3)nc3ccccc23)cc1`, the lipid storage change, negative = inhibition was inconclusive: -7.33%.
With `Cc1ccc(NC(=O)CSC(N)=O)cc1Cl` the lipid storage change, negative = inhibition was inconclusive: 17.8%.
For `O=C(CSCc1ccc([N+](=O)[O-])cc1)NCCSCc1ccccc1`, the lipid storage change, negative = inhibition was inconclusive: -64.3%.
With `Cc1cc(C(=O)N2CCCC2)n[nH]1` the Potency was inconclusive: 0.13 µM [activator, full curve, poor fit].
In the case of `CCOC(=O)N1CCN(Cc2cc(Cl)c3cccnc3c2O)CC1`, the Potency is reported as inconclusive: 16.4 µM [falling, partial curve].
With `CCOC(=O)C1=C(CS(=O)(=O)c2ccc(C)cc2)NC(=O)NC1c1cc(OC)c(O)c(OC)c1` (configuration not stated) the lipid storage change, negative = inhibition was inconclusive: 1.98%.
With `CC1(c2cc([N+](=O)[O-])cc([N+](=O)[O-])c2)CC(C)(C)N(C(=O)c2ccccc2)c2ccccc21` (configuration not stated) the lipid storage change, negative = inhibition was inconclusive: -16.8%.
For `COc1cccc(OCC(=O)NNC(=O)c2cccs2)c1`, the lipid storage change, negative = inhibition was inconclusive: 8.95%.
With `Cc1noc(NS(=O)(=O)c2ccc(NC(=O)/C=C/c3ccc(C(C)C)cc3)cc2)c1C` the Potency was inconclusive: 7.31 µM [activator, partial curve].
With `CC(C)c1ccc(OCC(=O)N2CCCCCC2)c(Br)c1` the lipid storage change, negative = inhibition was inconclusive: -9.3%.
In the case of `CC(=O)c1c(O)cc(=O)n(-c2ccccc2)c1-c1ccc(Cl)cc1`, the lipid storage change, negative = inhibition is reported as inconclusive: 4.43%.
In the case of `COc1ccccc1/C=C/C=N/n1c(C2CCCCC2)n[nH]c1=S`, the Potency is reported as inconclusive: 29.1 µM [falling, single point].
For `COc1ccccc1N=Nc1[nH]c2ccc(C)cc2c1O`, the Potency was inconclusive: 23.1 µM [falling, single point].
With `CCCN1CCN(CCCNC(=O)c2ccc3c(Cl)c4c(nc3c2)CCCC4)CC1` the lipid storage change, negative = inhibition was inconclusive: -21.2%.
